Assay: Improvement of light resistance of cyanine dye (xenon lamp exposure of coated glass substrate)
Settings: 2 mg nickel complex with 10 mg and 5 mg cyanine dyes in 3 ml TFP, coated on glass; 500 W xenon lamp, 7 cm, 25 min; transmittance at 700 nm
Protocol: Then, in accordance with conventional manner, a prescribed amount of the solution was dropped on either side of a glass substrate, 5 cm×5 cm, which had been ground, followed by rotating the substrate at a rate of 1,000 rpm for one minute to homogeneously coat the solution on the substrate and drying the coated solution with sequential blows of hot air and cool air.
The resulting glass substrates coated with the light absorbents were measured for transmittance (T0) at a wavelength of 700 nm in a usual manner. Then, the substrates were fixed to a position 7 cm apart form a 500 W xenon lamp and exposed with the light of the lamp for 25 min while blowing cool air to the substrates, and then remeasured for transmittance (T) at a wavelength of 700 nm. The transmittance of T and T0 for each formazan metal complex were substituted for the Equation 1 to calculate the residual percentage (%) of each cyanine dye. In parallel, there provided a system using, as a light-resistant improver, a conventional nickel complex having any one of the formazan metal complexes represented by Chemical Formulae 48 and 49 in place of the above formazan metal complexes of the present invention; and a system with no light-resistant improver. These systems as controls were treated similarly as above (hereinafter called “control 1”, “control 2”, and “control 3”).

Row | SMILES | Residual percentage (%) of cyanine dye [%]
1 | O=[N+]([O-])c1ccc(NN=C(N=Nc2ccccc2)c2ccccc2)nc1 [Chemical Formula 49, reference compound] | 66.5
2 | c1ccc(N=NC(=NNc2ccccc2)c2cccnc2)cc1 [Chemical Formula 48, reference compound] | 85.4
3 | O=[N+]([O-])c1ccc(NN=C(N=Nc2ccccc2)c2cccnc2)nc1 [Chemical Formula 8] | 98.4
4 | COc1ccc(OC)c(N=NC(=NNc2ccccn2)c2cccnc2)c1 [Chemical Formula 3] | 98.6
5 | COc1ccc(OC)c(N=NC(=NNc2ccc([N+](=O)[O-])cn2)c2ccccn2)c1 [Chemical Formula 20] | 97.6
6 | c1ccc(N=NC(=NNc2ccccn2)c2cccnc2)cc1 [Chemical Formula 2] | 94.4
7 | CCC(C)C(N=Nc1cc(OC)ccc1OC)=NNc1ccc([N+](=O)[O-])cn1 (stereo not shown) [Chemical Formula 40] | 97.2

Reference: US6645594B1, “Formazan metal complex” (Kabushiki Kaisha Hayashibara Seibutsu Kagaku Kenkyujo, priority 1999, dated 2003)
